Test results as given in patent US20040029865A1, “Bis-arylsulfones” (priority 2002, published 2004).
For at least one compound, name, drawing or mass did not settle the structure.

Test: Dynamic moisture sorption gravimetry (DMSG)
Type: physicochemical
Conditions: moisture sorption weight change
Description: Dynamic moisture sorption gravimetry (DMSG): DMSG isotherms were collected on the variable temperature controlled atmospheric microbalance, CAM. Approximately 10 mg samples were used in the balance, samples were run as received. The humidity was set at ambient conditions on the day analysis began. After the first scan with fast scan rate from ambient RH to 0% RH; the DMSG analysis followed with three more scans: 0% RH to 90% RH, 90% RH to 0% RH, 0% RH to 90% RH. The scan rate was 3% RH/step. The mass was measured every two minutes and an equilibrium window of 5 points within 0.001 mg. The RH was changed to the next value (+/−3% RH) when the mass of the sample was stable to within 1.0 μg. The Visual Basic program dmsgscn2.exe was used to control the data collection and export the information to an Excel spreadsheet.

CC(=O)Nc1cc(N2CCCNCC2)ccc1S(=O)(=O)c1cccc(F)c1 [Example 11, N-{5-(1,4-diazepan-1-yl)-2-[(3-fluorophenyl)sulfonyl]phenyl}acetamide Hemi-tartrate]
Δ-Wt (%) DMSG: 0-90% RH: 7.0%
